# Library screening results

The values are deposited in ChEMBL (CHEMBL3988442, “University of Dundee, Small-Polar-MMV Screening Library” (2021)).

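Whole-cell assay for inhibitors of Mycobacterium tuberculosis growth, labelled Cornell in the record; the read-out is not stated. The concentration is filed as 10 mM, unlikely as a test dose, so the dose is not known. Higher means stronger inhibition (inferred from two other growth screens of the library). Size under these conditions: about 53,000 compounds, about 900 of them at 50% or above in at least one test.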

Each number is a percent effect as filed.
How 0% and 100% were set is not recorded. Most values in the screen are low, and negative values occur.
The compounds are a random part of those screened.

SMILES | effect
CCCN1C(=O)CC(N2CCN(c3ccc(F)cc3)CC2)C1=O (stereo unspecified) | -5.623%
C[C@@H]1CN(c2nc(N)nc3c2CCC3)C[C@]1(C)O | -3.066%
CC(C)CN1CC2(CCN(C(=O)C3CSC(C)(C)C(=O)N3)CC2)CC1=O (stereo unspecified) | -17.19%
CCn1cc(CN2CCCC2c2nc(C(C)C)no2)cc1C#N (stereo unspecified) | -25.21%
Cc1ccccc1NC(=O)NCC(C)(O)c1cccs1 (stereo unspecified) | 1.898%
COc1ccc(-c2nnc(C(C)N3CCOC(C)(C)C3)o2)cc1 (stereo unspecified) | 7.417%
Cn1cnc(S(=O)(=O)NCCCN2CCOCC2)c1Cl | 2.812%
CN(Cc1nnc(C2CC2)o1)C(c1ccc(F)cc1)c1cccnc1 (stereo unspecified) | 17.39%
Cn1[nH]c(CNc2cccc(Cl)c2)nc1=O | 15.5%
O=c1[nH]c2ccccc2cc1CN(Cc1ccccn1)CC1CCCO1 (stereo unspecified) | -6.718%
CN(C)c1ncnc2c1CCN(C(=O)c1sccc1S(N)(=O)=O)C2 | -5.012%
CCN(CC1CCCN(CCc2cccc(OC)c2)C1)C(=O)CN(C)C (stereo unspecified) | -3.692%
OC1(CNCCSc2ccccn2)CCCNC1 (stereo unspecified) | -14.17%
CCn1cncc1CN1CCN(CC2(c3ccc(C)cc3)CC2)CC1.Cl | -29.19%
CN(CCCO)C(=O)c1cc(COc2ccc3c(c2)CCCC3)on1 | 38.1%
COc1ccc2[nH]c(C(=O)NCC3(N)CCCC3)cc2c1 | -7.358%
CC(=O)N1CCC(NC(=O)c2cc(S(N)(=O)=O)ccc2C)CC1 | -20.87%
CN(Cc1ccoc1)C(=O)C1CCN(C(=O)C2CCCC2)CC1 | -5.206%
O=C(NCCCC(=O)N1Cc2ccccc2C1)NCc1cccnc1 | 16.51%
COCc1cccc(C(=O)N2CCCCC2c2nccs2)c1 (stereo unspecified) | 9.985%
Cc1cc(F)cc(NC(=O)N(C)CC(C)(CO)CO)c1 | 17.04%
Cc1nn(C(C)C)c2cnn(CC(=O)N3CCSCC3)c12 | -7.998%
O=C(NCCn1nc(-n2cncn2)ccc1=O)c1ccc(F)cc1F | -43.51%
Cc1cc(C(F)(F)F)nc(C2COCCN2S(C)(=O)=O)n1 (stereo unspecified) | -5.552%
CC(C)Oc1cccc(F)c1C(C(=O)O)N1CCCN(C)CC1 (stereo unspecified) | -2.698%
CCOCCn1c(=O)n(Cc2ccccc2F)c2cc(C(=O)O)cnc21 | -25.36%
COc1ccc(C(=O)Nc2ccc3ncn(C(C)C)c(=O)c3c2)cc1 | 45.39%
O=C(CCC1CCN(Cc2ncc[nH]2)CC1)Nc1ccccc1Cl | 29.93%
COc1c(Br)cccc1CCNC(=O)c1ncoc1C | 35.49%
CCn1nc(C)c(CCNC(=O)C2CCCN(C(N)=O)C2)c1C (stereo unspecified) | -4.802%
Cc1ccccc1CC(C)NCc1c(C)nn(C)c1N1CCOCC1.Cl (stereo unspecified) | 13.46%
[H][C@]12CCC(=O)N(C)[C@@]1(C)CCCCN2C(=O)CCn1nccc1C | -72.7%
CN1CCC(c2cccc(-c3cccc(C(=O)O)c3)n2)CC1 | -1.763%
COc1ccc(N2CCN(C(=O)CCn3nnnc3C)CC2(C)C)cc1 | 1.235%
COCCN1CCN(CCS(=O)(=O)C(F)(F)F)CC1C (stereo unspecified) | -6.684%
CCC(=O)Nc1ccc(F)cc1OC | 6.303%
O=C(O)C(F)(F)F.O=C(O)C(F)(F)F.[H][C@@]12CN(Cc3cccc(F)c3)C[C@]1([H])CN(c1ncc(F)cn1)C2 | 6.523%
CN(Cc1ccsc1)C(=O)Cn1c(CS(C)(=O)=O)nc2ccccc21 | 17.82%
Cc1cc(CN2CCCC(C)(CO)C2)ccc1F (stereo unspecified) | 0.9947%
NC(=O)CN1CCCN(C(=O)c2ccn(-c3ccc(F)cc3)n2)CC1 | -13.77%
CCCC(O)CN1CC(C)(C)CN(C(=O)c2ccccc2)CC1=O (stereo unspecified) | 6.323%
Cc1nn(C)c(N(C)C)c1CNCc1nnc2n1CCCCC2.Cl | 67.58%
Cc1cnc(N2CCC3(CC2)CC3CNC(=O)C2CCC2)nc1.O=C(O)C(F)(F)F (stereo unspecified) | -0.541%
Cc1nn(C)c(Cl)c1C1CCCN1Cc1noc(C2CC2)n1 (stereo unspecified) | -6.241%
Cn1cc(N2CC3(COCCN(Cc4nccs4)C3)OCC2=O)cn1.O=C(O)C(F)(F)F (stereo unspecified) | 11.89%
COCC1CN(C(=O)c2ccco2)Cc2cn(C)nc21.O=C(O)C(F)(F)F (stereo unspecified) | 11.71%
CC1(C)CNC(=O)c2nc(-c3nnn[nH]3)[nH]c2C1 | 11.94%
O=C(O)C(F)(F)F.[H][C@@]12CN(Cc3ccsc3)CCC[C@]1(C(=O)O)CN(c1ncccn1)C2 | 0.296%
Cc1ncc(CC(=O)N2CCCC(COc3ccc(F)cc3)C2)c(=O)[nH]1 (stereo unspecified) | 0.1814%
CN1CCN(CC2CC2)C(=O)C12CCN(c1nccs1)CC2 | 26.07%
CCc1nc(C2CCCN2C(=O)c2cc[nH]n2)no1 (stereo unspecified) | -23.08%
CN1CCOC(C(=O)N(C)c2ccc3c(c2)CCO3)C1 (stereo unspecified) | -7.58%
Cc1nsc(NC(=O)N2CCCC2C)n1 (stereo unspecified) | -5.14%
CNC(=O)NC(=O)CCN1CCN(c2ccc(C(=O)OC)cc2)CC1C (stereo unspecified) | 10.35%
CC(C)NC(=O)[C@H](C)NC(=O)N1CCN(c2ccc(Cl)cc2)CC1 | -2.997%
Cc1ccc2cccc(C(=O)N3CCN(c4cccnn4)CC3)c2n1 | 9.943%
COCCN1CCC2(COCc3cnc(-c4ccccc4)nc32)C1.O=C(O)C(F)(F)F (stereo unspecified) | 7.265%
O=C(CCOc1ccc(F)cc1)N1CCCC1Cn1cccn1 (stereo unspecified) | 1.916%
O=C1CCCN1CCCC(=O)N1CCCC(c2ccn[nH]2)C1 (stereo unspecified) | -13.71%
CC1c2ncc(Cn3cncn3)n2CCN1C(=O)c1cscn1 (stereo unspecified) | -33%
[H][C@]12CC[C@]([H])(CN(S(=O)(=O)N(C)C)C1)N(CCC(=O)NCc1ccco1)C2 | 10.42%
CCSc1nnc(CCNC(=O)OC(C)(C)C)o1 | -22.3%
[H][C@@]12CCN(Cc3nccs3)C[C@@]1([H])O[C@H](C)C2 | 32.87%
Cc1ccc2c(-c3nc4c([nH]3)CCNC4C(=O)O)cccc2n1 (stereo unspecified) | 15.62%
CCN1CC(COC(=O)c2ccc(N(C)C)cc2F)CC1=O (stereo unspecified) | 3.41%
CN1CCC(CNC(=O)CCSc2ccc3c(c2)OCCO3)C1 (stereo unspecified) | -7.06%
[H][C@@]12CC(=O)/C(=C(\C)NC(=O)c3ccccn3)[C@]1([H])C2(C)C | 3.02%
COCCCNC(=O)C(C)(C)N(C)C1CCCC1 | -3.154%
[H][C@@]12CN(C(=O)N3CCOCC3)C[C@@]1([H])N(CC(C)C)C(=O)CO2 | 2.661%
O=C(CN1CC(c2ccccc2)CC1=O)NCc1cc2n(n1)CCNC2 (stereo unspecified) | -17.64%
COc1ccc(C(=O)NCCN(C)C)c(I)c1 | 44.47%
CC(NC(=O)NCCCN(C)S(C)(=O)=O)c1ccc(F)cc1 (stereo unspecified) | -22.95%
Cc1cccc(CN2CCc3c(COCC(=O)N(C)C)nn(C)c3C2)n1.O=C(O)C(F)(F)F.O=C(O)C(F)(F)F | -1.418%
CC(Cn1cccn1)NCc1csc(-c2cccs2)n1 (stereo unspecified) | 61.96%
COC(=O)CCN1CCC(C(=O)c2cc(F)ccc2F)CC1 | 8.171%
COCC(=O)N1CCC(C(=O)Nc2ccc(S(N)(=O)=O)cc2)CC1 | -2.949%
CC1CCC(NS(=O)(=O)CC(=O)NCC2CCC2)CC1 (stereo unspecified) | 57.41%
CN(C)CCN(C)C(=O)c1cnc2c(c1)nc(-c1ccccc1Cl)n2C | 19.35%
O=C(c1sccc1Br)N1CCOCC1 | -33.17%
CCc1nc(CN2CCN(C(=O)c3cc(C)no3)CC2)cs1 | 16.96%
CN1CCOC(CN(C(=O)Cc2ccccc2F)c2nccs2)C1 (stereo unspecified) | -4.4%
COc1cccc(-c2nc3c([nH]2)CC(C)(C)CNC3=O)c1OC | 2.697%

6 of the entries, repeated:

SMILES	effect
Cc1ccc2cccc(C(=O)N3CCN(c4cccnn4)CC3)c2n1	9.943%
COCC1CN(C(=O)c2ccco2)Cc2cn(C)nc21.O=C(O)C(F)(F)F (stereo unspecified)	11.71%
CN1CCOC(CN(C(=O)Cc2ccccc2F)c2nccs2)C1 (stereo unspecified)	-4.4%
Cc1ccccc1NC(=O)NCC(C)(O)c1cccs1 (stereo unspecified)	1.898%
COc1cccc(-c2nc3c([nH]2)CC(C)(C)CNC3=O)c1OC	2.697%
COc1ccc(-c2nnc(C(C)N3CCOC(C)(C)C3)o2)cc1 (stereo unspecified)	7.417%